# Numbering of substitutions follows the chain as printed. Results are given in words; binding and its absence hold for the method and conditions named. Some results given as binding are weak or reduced against the parent protein; the word gives no strength.
# B1: anti-human GPC3 IgG1 antibody clone 40 (antibody, V domains shown)
# VH: CQSVEESGGRLVTPGTPLTLTCTVSGFSLSTYWMTWVRQAPGKGLEWIGIISPAGSAYYASWAKGRFTISKTSSATVDLKMTSLTTADTATYFCAGGGGMDPWGPGTLVTVSS
# VL: DPVLTQTPSSVSAAVGGTVSISCQSSQSIVKNYLSWFQQKPGQPPKRLIYKASTLPSGVPSRFKGSGSGTEFTLTISDLECDDAATYYCAASYSDNIYVFGGGTEVVVKR
# B2: anti-human GPC3 IgG1 antibody clone 121 (antibody, V domains shown)
# VH: B1 VH with S52N, T86A, A87V
# VL: B1 VL with S20T, S28N, V30I, N32D, A52T, D95G
# B3: anti-human GPC3 IgG1 antibody clone 2 (antibody, V domains shown)
# VH: CQSVEESGGRLVTPGTPLTLTCTVSGFSLSTYNMGWIRQAPGEGLEYIGTISSSTGNTYYATWAKGRFTISKTSSTTVDLKITNLTTEDTATYFCVRVNNMGDIWGPGTLVTVSL
# VL: AIVMTQTPSSKSVAVGDTVTINCQASESVYKDNRLAWFQQKPGQAPKLLIYLASTLASGVPSRFKGSGSGTEFTLTISDVVCDDAATYYCGGYKDSLFDGFPFGGGTEVVVKR
# B4: anti-human GPC3 IgG1 antibody clone 5 (antibody, V domains shown)
# VH: B3 VH with I37V
# VL: B3 VL with A45P
# B5: anti-human GPC3 IgG1 antibody clone 17 (antibody, V domains shown)
# VH: CQSVEESGGRLVTPGTPLTLTCTVSGFSLSTYDMSWVRQAPGKGLEYIGWINSGGSPYYARWAKGRFTISKTSSTTVDLKMTSPTTEDTATYFCARHRSGYYGDIWGPGTLVTVSL
# VL: DPVLTQTPSSVSAAVGDTVSINCQSSQNVYKNRLAWYQQKPGQPPKLLIYGASTLASGVPSRFKGSGSGTQFTLTISDLECDDAATYYCAGGYSTIVDNTFGGGTEVVVKR
# B6: anti-human GPC3 IgG1 antibody clone 23 (antibody, V domains shown)
# VH: B1 VH with P17A, S52N, A54G, T86A
# VL: B1 VL with V30I, Q39H, K51R, K64E
# B7: anti-human GPC3 IgG1 antibody clone 41 (antibody, V domains shown)
# VH: B1 VH with P17A, S52N, A54G, T72A, T86A
# VL: B1 VL with V30I, Q39H, K51R, K64E, S77N
# B8: anti-human GPC3 IgG1 antibody clone 12 (antibody, V domains shown)
# VH: B1 VH with S52N, A54S, Y58F, T86A
# VL: B1 VL
# B9: anti-human GPC3 IgG1 antibody clone 22 (antibody, V domains shown)
# VH: B1 VH with S52N, A54T, S56R, T86A
# VL: B1 VL with S20T, S22N, I29V, V30Y, K31S, Q39K, P56V, K64V, D95G
# B10: anti-human GPC3 IgG1 antibody clone 49 (antibody, V domains shown)
# VH: B1 VH with S52N, A54S, T86A
# VL: B1 VL
# Molecular target: cynomolgus monkey GPC3 protein (cynomolgus monkey)
# Test: ELISA, titration on cynomolgus GPC3 protein
row,Binder,binding
1,B1,binds

# Molecular target: cynomolgus monkey GPC3 protein (cynomolgus monkey)
# Test: screening of recombinantly expressed rabbit clones (before the change to human constant regions)
row,Binder,binding
1,B2,binds
2,B3,binds
3,B4,binds
4,B1,binds
5,B5,binds
6,B6,binds
7,B7,binds
8,B8,binds
9,B9,binds
10,B10,binds

# Reference: patent publication US12492252
